These are yes or no findings as the source states them, for the method shown. Some results given as binding are weak or reduced against the parent protein; the word gives no strength.

The chains behind the UniProt entries cited, without tags or fusion partners.
UniProt Q9H081: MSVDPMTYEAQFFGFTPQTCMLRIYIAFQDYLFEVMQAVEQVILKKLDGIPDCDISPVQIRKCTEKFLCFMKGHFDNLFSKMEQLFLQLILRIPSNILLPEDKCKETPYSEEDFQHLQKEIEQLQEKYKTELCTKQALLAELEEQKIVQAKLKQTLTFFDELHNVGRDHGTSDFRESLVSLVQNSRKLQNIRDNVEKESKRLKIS

These results are taken from doi:10.1101/2023.08.07.552315 (bioRxiv, 2023).

Assay [1] concerns the target T1, DSN1 (subunit of the Mis12 complex in the KMN cryo-EM sample) (human) (UniProt Q9H410).
T1 sequence: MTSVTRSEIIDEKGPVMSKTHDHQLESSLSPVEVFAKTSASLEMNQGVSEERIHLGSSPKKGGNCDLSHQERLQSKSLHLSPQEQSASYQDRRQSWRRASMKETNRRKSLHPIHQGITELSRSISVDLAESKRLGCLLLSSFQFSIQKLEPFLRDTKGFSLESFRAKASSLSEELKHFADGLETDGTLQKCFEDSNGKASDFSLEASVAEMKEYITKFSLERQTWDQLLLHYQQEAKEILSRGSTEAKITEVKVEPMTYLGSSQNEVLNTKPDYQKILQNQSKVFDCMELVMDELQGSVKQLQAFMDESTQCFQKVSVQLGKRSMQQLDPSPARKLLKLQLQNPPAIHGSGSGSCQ
The experiment in a line: cryo-EM structure.

The target in assay [2] is MIS12 (subunit of the Mis12 complex in the KMN cryo-EM sample) (human) (UniProt Q9H081). As to the kind of experiment: cryo-EM structure.

B1: PMF1 (subunit of the Mis12 complex in the KMN cryo-EM sample) (protein, UniProt Q6P1K2 1-205)
chain: MAEASSANLGSGCEEKRHEGSSSESVPPGTTISRVKLLDTMVDTFLQKLVAAGSYQRFTDCYKCFYQLQPAMTQQIYDKFIAQLQTSIREEISDIKEEGNLEAVLNALDKIVEEGKVRKEPAWRPSGIPEKDLHSVMAPYFLQQRDTLRRHVQKQEAENQQLADAVLAGRRQVEELQLQVQAQQQAWQALHREQRELVAVLREPE
For the molecule B1, the binding entry in assay [1] and in assay [2] was “binds” each time.
